Record: PubChem BioAssay AID743121 (NCATS, 2013)

Assay: 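Partners whose loss is lethal together with topoisomerase I blockade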 (primary screen)
Cell system: MDA-MB-231 cells, a human breast cancer line
Knock-down reagent: single siRNA against human genes, 20 nM siRNA (0.8 pmol per well)
Timing: 120 h (drug added 48 h after transfection, read 72 h later)
Challenge: camptothecin 20 nM (about EC30) for 72 h; vehicle 0.1% DMSO in parallel plates
Measured: 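CellTiter-Glo ATP signal, scaled to control siRNA as percent viability; sensitisation given as log2 of untreated divided by camptothecin-treated viability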
Scale: log2 vehicle/camptothecin viability: higher = stronger sensitisation to camptothecin
Hit rule: 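Each gene scored by redundant siRNA activity (RSA) over its individual siRNA ratios; a gene is called active at p < 0.001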
This is one part, drawn at random, of about 26,000 reagents. Of all reagents, 167 (0.63%) were called active. 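Calls are per gene from RSA p-values that are not deposited; an individual active-marked siRNA can sensitise only weakly.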 Entries without a mark were called inactive. The numbers tell different reagents against one gene apart. Not all columns of the deposit are shown.

no.	Target gene	siRNA no.	log2 vehicle/camptothecin viability
1	GPRC5B	1	-0.555
2	GPRC5B	2	0.587
3	GPRC5B	3	-0.256
4	GPRC5B	4	-0.0775
5	TOP2A	1	-0.769
6	TOP2A	2	0.00891
7	TOP2A	3	-0.0333
8	TOP2A	4	-0.519
9	CPT1C	1	-0.263
10	CPT1C	2	-0.449
11	CPT1C	3	0.203
12	CPT1C	4	0.0291
13	TAOK1	1	-0.022
14	TAOK1	2	-0.0624
15	TAOK1	3	-0.335
16	TAOK1	4	-0.588
17	CRADD	1	-0.206
18	CRADD	2	0.253
19	CRADD	3	-0.111
20	CRADD	4	-0.458
21	WASL	1	-0.109
22	WASL	2	-1.31
23	WASL	3	-0.295
24	PARD3	1	-0.268
25	PARD3	2	-0.511
26	PARD3	3	-0.102
27	PARD3	4	0.715
28	COQ8B	1	-0.257
29	COQ8B	2	-0.301
30	COQ8B	3	-0.327
31	COQ8B	4	-0.184
32	SH2D3C	1	-0.215
33	SH2D3C	2	-0.0647
34	SH2D3C	3	-0.575
35	SH2D3C	4	-0.405
36	MSX2	1	-0.271
37	MSX2	2	-0.0786
38	MSX2	3	-0.254
39	CCNF	1	0.32
40	CCNF	2	0.239
41	CCNF	3	-0.181
42	CCNF	4	-0.411
43	NEK5	1	-0.114
44	NEK5	2	-0.143
45	NEK5	3	-0.391
46	NEK5	4	0.0542
47	GCDH	1	0.0733
48	GCDH	2	0.0918
49	GCDH	3	-0.547
50	GCDH	4	-0.412
51	NPHS1	1	-0.742
52	NPHS1	2	-0.151
53	NPHS1	3	-0.38
54	NPHS1	4	0.334
55	DAPK2	1	-0.0278
56	DAPK2	2	0.195
57	DAPK2	3	0.361
58	DAPK2	4	-0.71
59	FCAMR	1	-0.275
60	FCAMR	2	-0.13
61	FCAMR	3	-0.235
62	FCAMR	4	0.398
63	BLNK	1	-0.61
64	BLNK	2	-0.232
65	BLNK	3	-0.327
66	BLNK	4	0.853
67	OAS1	1	-0.0501
68	OAS1	2	-0.152
69	OAS1	3	0.163
70	OAS1	4	0.621
71	ADIPOR1	1	-0.104
72	ADIPOR1	2	-0.411
73	ADIPOR1	3	-0.674
74	ADIPOR1	4	-0.416
75	LRRC58	1	-0.277
76	LRRC58	2	-0.336
77	LRRC58	3	0.0643
78	ADORA2B	1	0.261
79	ADORA2B	2	0.0136
80	ADORA2B	3	0.171
81	ADORA2B	4	0.0363
82	KDM2A	1	-0.183
83	KDM2A	2	-0.111
84	KDM2A	3	0.0412
85	KDM2A	4	0.196
86	CDK11B	1	-0.724
87	CDK11B	2	-0.574
88	CDK11B	3	-0.309
89	CDK11B	4	-0.616
90	CDK11B	5	-0.6
91	CDK11B	6	-0.713
92	CDK11B	7	-0.478
93	CDK11B	8	-0.46
94	CDK11B	9	-0.481

6 consecutive records from above, for reference:
no.	Target gene	siRNA no.	log2 vehicle/camptothecin viability
76	LRRC58	2	-0.336
77	LRRC58	3	0.0643
78	ADORA2B	1	0.261
79	ADORA2B	2	0.0136
80	ADORA2B	3	0.171
81	ADORA2B	4	0.0363
